# Test system: K562 cells
# Test: MTT cytotoxicity assay, K562
# Format: cell-based, human
# Conditions: ratio of IC50 for HUVEC and K562
# Protocol: Human umbilical vein endothelial cells (purchased from Life Technologies, Carlsbad, CA, USA) were cultured according to the manufacturer’s instructions in Medium 200 supplemented with Low Serum Growth Supplement. 1 × 10^4 cells were seeded on each well on a 96-well plate (Nunc, Roskilde, Denmark). The HeLa (human cervix carcinoma, cat. #93021013), CFPAC (human pancreatic adenocarcinoma, cat. #91112501), K562 (chronic myelogenous leukemia, cat. #89121407), HL-60 (acute myelogenous leukemia, cat. #98070106), and MOLT-4 (Human acute T lymphoblastic leukemia, cat. #85011413) cells were purchased from European Collection of Authenticated Cell Cultures (ECACC). They were cultured in an RPMI 1640 medium supplemented with antibiotics (streptomycin, penicillin) and 10% fetal calf serum (20% for HL60), in a 5% CO2-95% air atmosphere. 7 × 10^3 cells were seeded on each well on a 96-well plate (Nunc). 24 hours later the cells were exposed to the test compounds. The aliquots of stock solutions of the test compounds (freshly prepared in DMSO) were added to the cell cultures to yield final concentrations of 1, 10^−1, 10^−2, 10^−3, 10^−4, and 10^−5 mM. The concentration of DMSO in the cell culture medium was 1%. The IC50 value (the concentration of a test compound required to reduce the cell survival fraction to 50% of the control) was calculated from a dose-response curve and used as a measure of cellular sensitivity to a given treatment. The IC50 values are given as means (± standard deviation (SD)) from 2 independent experiments with 4 technical replicates. The cytotoxicity of all compounds was determined by the MTT (3-(4,5-dimethylthiazol-2-yl)-2,5-diphenyltetrazolium bromide) assay (Sigma, St. Louis, MO, USA). Briefly, after 24 h or 48 h of incubation with a given compound, the cells were treated with the MTT reagent and incubation was continued for 2 h. MTT-formazan crystals were dissolved in 20% SDS and 50% DMF at pH 4.7 and VIS light absorption was measured at 570 and 650 nm on a microplate reader FLUOstar Omega (BMG Labtech, Offenburg, Germany). As a control (100% viability), cells grown in the presence of 1% DMSO were used.
row,Structure (SMILES),TI (therapeutic index)
1,CCC12C(=O)C(CC)(C(c3ccccc3)=C1c1ccccc1)C1C(=O)N(CCN(C)C)C(=O)C12 (centres unmarked) [Compound 1],10
2,CCN(CC)CCN1C(=O)C2C(C1=O)C1(CC)C(=O)C2(CC)C(c2ccccc2)=C1c1ccccc1 (centres unmarked) [Compound 2],22
3,CCC12C(=O)C(CC)(C(c3ccccc3)=C1c1ccccc1)C1C(=O)N(CCN3CCCCC3)C(=O)C12 (centres unmarked) [Compound 3],50
4,CCC12C(=O)C(CC)(C(c3ccccc3)=C1c1ccccc1)C1C(=O)N(CCCN(C)C)C(=O)C12 (centres unmarked) [Compound 4],12.5
5,CCC12C(=O)C(CC)(C(c3ccccc3)=C1c1ccccc1)C1C(=O)N(CC(O)CNC(C)C)C(=O)C12 (centres unmarked) [Compound 5],100
6,CN(C)CCN1C(=O)C2C(C1=O)C1(c3ccccc3)CC2(c2ccccc2)C(c2ccccc2)=C1c1ccccc1 (centres unmarked) [Compound 6],100
7,O=C(CCCCC1SCC2NC(=O)NC21)NCC(O)CN1C(=O)C2C(C1=O)C1(c3ccccc3)CC2(c2ccccc2)C(c2ccccc2)=C1c1ccccc1 (centres unmarked) [Compound 6b],0.5
8,"CC12C(=O)C(C)(C(c3ccccc3)=C1c1ccccc1)C1C(=O)N(C3CCC(=O)NC3=O)C(=O)C12 (centres unmarked) [Compound 7, 4-(2,6-dioxopiperidin-3-yl)-1,7-dimethyl-8,9-diphenyl-4-azatricyclo[5.2.1.0^2,6]dec-8-ene-3,5,10-trione]",1.2
9,"CCC12C(=O)C(CC)(C(c3ccccc3)=C1c1ccccc1)C1C(=O)N(C3CCC(=O)NC3=O)C(=O)C12 (centres unmarked) [Compound 8, 4-(2,6-dioxopiperidin-3-yl)-1,7-diethyl-8,9-diphenyl-4-azatricyclo[5.2.1.0^2,6]dec-8-ene-3,5,10-trione]",2.6
10,"CC(C)C[C@H](NC(=O)[C@H](Cc1ccccc1)NC(=O)c1cnccn1)B(O)O [bortezomib, reference compound]",0.25
11,"Nc1ccn([C@@H]2O[C@H](CO)[C@@H](O)[C@@H]2O)c(=O)n1 [cytarabine, reference compound]",3.3
12,"COc1cccc2c1C(=O)c1c(O)c3c(c(O)c1C2=O)C[C@@](O)(C(=O)CO)C[C@@H]3O[C@H]1C[C@H](N)[C@H](O)[C@H](C)O1 [doxorubicin, reference compound]",0.67
13,"CCc1c2c(nc3ccc(OC(=O)N4CCC(N5CCCCC5)CC4)cc13)-c1cc3c(c(=O)n1C2)COC(=O)[C@]3(O)CC [irinotecan, reference compound]",3
14,"CNC(=O)c1cc(Oc2ccc(NC(=O)Nc3ccc(Cl)c(C(F)(F)F)c3)cc2)ccn1 [sorafenib, reference compound]",6.7
